Measured values taken from article PMC8241751, “Influence of the Dabcyl group on the cellular uptake of cationic peptides: short oligoarginines as efficient cell-penetrating peptides” (Amino Acids, 2021).
Where a SMILES comes first, the peptide text is derived from it. The star is where a group is joined. 5FAM = O=C1OC2(c3ccc(O)cc3Oc3cc(O)ccc32)c2ccc(C(=O)*)cc21; X1 = CN(C)c1ccc(/N=N/c2ccc(C(=O)*)cc2)cc1

Assay: Effect of trypsin digestion (FRET) on the fluorescence signal
Conditions: c = 10 μM, 10 min, measure of intramolecular FRET quenching

| Compound | Increase of fluorescence intensity after digestion by trypsin |
| --- | --- |
| CN(C)c1ccc(/N=N/c2ccc(C(=O)N[C@@H](CCCNC(=N)N)C(=O)N[C@@H](CCCNC(=N)N)C(=O)N[C@@H](CCCNC(=N)N)C(=O)N[C@@H](CCCNC(=N)N)C(=O)N[C@@H](CCCNC(=N)N)C(=O)N[C@@H](CCCNC(=N)N)C(=O)N[C@@H](CCCCNC(=O)c3ccc4c(c3)C(=O)OC43c4ccc(O)cc4Oc4cc(O)ccc43)C(N)=O)cc2)cc1 [Dabcyl–Arg6–Lys(Cf)–NH2] (X1-RRRRRRK(5FAM)-NH2) | 4 times |
| Dabcyl–RRRRRRK(Rh)–NH2 [Dabcyl–Arg6–Lys(Rh)–NH2, Dabcyl-modified hexaarginine with carboxytetramethylrhodamine on lysine] | 1.8 times |
